# Primary screen of a compound library

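Viability assay of Plasmodium falciparum sporozoites; the read-out is not stated. The concentration is filed as 10 mM, unlikely as a test dose, so the dose is not known. The record gives no direction; compounds that gave an IC50 in retests scored well above the rest, so higher reads as lower viability. Strong results were mostly tested again. Of about 34,000 compounds tested this way, about 280 (0.84%) reached 50% or more in at least one test.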

Values are the deposited “Percent Effect”, in %.
How 0% and 100% were set is not recorded. Most values in the screen are low, and negative values occur.
This is an unselected part of the compounds tested.
Two or more numbers in one place are separate tests of the same structure; such repeats can differ widely.

SMILES,effect
Cc1cc(NCCN)nc2ccccc12.O=[N+]([O-])O,12.59%
NC(=O)CN1CCC(c2csc(Nc3cnccn3)n2)CC1,7.926%
[H][C@@]12COC[C@]1(COc1ccc(C#N)cn1)CN(Cc1cccc(C)n1)C2,-2.526%
CC(C)C(Sc1nnc(C2CC2)n1C1CC1)C(=O)NCc1cccnc1 (centres unmarked),1.308%
Cc1cc(C)n(CC2CN(CC(=O)NC3CCOCC3)CCO2)n1 (centres unmarked),-0.9759%
CC(O)CC(C)(C)CNS(=O)(=O)c1cccc(Cl)c1C#N (centres unmarked),19.15%
Cc1ccccc1N1CCN(C(=O)c2cscn2)C(C)C1 (centres unmarked),-0.3308%
Cc1ccc(NC(=O)NCC(c2cnn(C)c2)N(C)C)c(C)c1 (centres unmarked),5.006%
COc1c(C)cnc(CN2CCC(C(=O)N(C)C)CC2)c1C,14.06%
CCCNC(=O)NC(=O)CN1C=Nc2ccccc2S1(=O)=O,2.603%
CC(=O)N(C)c1nc(Cn2nnnc2C(C)(C)C)cs1,-16.73% and -19.11%
COc1ccc(C)cc1NC(=O)CNc1ccn(CC(N)=O)n1,-7.543%
O=C(CCNC(=O)C1CCCC1)NCc1ccccc1Cn1cncn1,5.786%
COCC(=O)NC1CC2(CCN(CC3CC3)CC2)Oc2ccccc21.O=C(O)C(F)(F)F (centres unmarked),9.019%
CCC(CNC1CCN(C(=O)N(C)C)CC1)Oc1ccccc1C (centres unmarked),15.63%
O=C(O)C(F)(F)F.[H][C@@]12CCN(C(=O)c3cscn3)[C@@]1([H])CCN2C1CCOC1 (some centres unmarked),14.38%
O=c1ccc2c(n1CC1CC1)CCC(NS(=O)(=O)C1CC1)C2 (centres unmarked),0.9549%
O=C(O)C(F)(F)F.[H][C@]12CCN(C(=O)c3ccco3)C[C@@]1([H])OCCN(C1CCOCC1)C2,-3.713%
Cc1ccccc1-c1noc(CN2CCOC(Cn3cccn3)C2)n1 (centres unmarked),-3.277%
Cn1nc2c(cc1=O)CN(Cc1nc(-c3ccsc3)no1)CC2,13.6%
O=C(C1CCN(Cc2nc(-c3ccco3)no2)CC1)N1CCCC1,27.73%
CC(C)(N)C(=O)N1CCCC1c1cncc(Oc2ccc(F)cc2)n1 (centres unmarked),-18.37%
COc1cccc(OCCn2c(C)c(C)oc2=O)c1,-15.97%
CCC(O)CNC(=O)C1(N(C)Cc2ccccc2)Cc2ccccc2C1 (centres unmarked),1.288%
CNC(=O)NC(=O)CSc1ccc2c(c1)CCC2,-6.915%
CC(C)c1nc(CN2CCOC(CNc3cccnn3)C2)cs1 (centres unmarked),4.959%
Cc1ccc(C#N)c(N2CCC(c3nccn3Cc3cscn3)CC2)n1,-4.506%
CC(=O)Nc1ccc(-n2ccc3nc(N4CCCC4)ncc3c2=O)cc1,-7.675%
CCOc1cccc(C(=O)NCCC(=O)Nc2ccncc2)c1,-1.015%
c1cnnc(N2CCCC2CNCc2nc(-c3cccs3)no2)c1 (centres unmarked),16.05%
Cl.Cl.Cn1cnc2c(-c3cccnc3)nc(C3CCNCC3)cc21,13.54%
CCOc1cccnc1C(=O)N1CCC(c2ccccc2OC)C1 (centres unmarked),-7.543%
CC(NC(=O)NCCn1ccnc1)c1ccc2c(c1)NC(=O)CO2 (centres unmarked),-0.5757%
COc1ccc(CN2CCn3cccc3C2C)cc1F (centres unmarked),-12.25%
O=C(O)C(F)(F)F.O=C(O)C(F)(F)F.[H][C@@]12CC(COc3ccccn3)C[C@@]1([H])N(Cc1ccoc1)CCO2 (some centres unmarked),2.253%
Cc1noc(C(C)N2CCN(CCOCC(F)(F)F)CC2)n1 (centres unmarked),11.53%
CN1CCOC(CNC(=O)CCCOc2cccc(F)c2)C1 (centres unmarked),7.848% and 7.883% and 5.332%
COc1cc([C@@H]2N[C@H](c3nccs3)Cc3ccsc32)cc(OC)c1OC,6.776%
COCC(c1cccc(C(F)(F)F)c1)N(C)C(=O)c1cc(C)no1 (centres unmarked),3.957%
CCOc1ccc(Cl)c(C(=O)NC)n1,3.028%
COc1ccc(N2CCN(Cc3noc(CC(C)C)n3)C(C)C2=O)cc1 (centres unmarked),-3.044%
Cc1cc(C)n(CC2CCCN2C(=O)Cc2c(C)nn(C)c2C)n1 (centres unmarked),-1.288%
COC(=O)N1CCN(Cc2ccccc2Cl)CC1,-2.3%
COc1ccccc1C1=NOC(CC2(C(=O)O)CCOCC2)C1 (centres unmarked),2.154%
Cc1csc(C2CCCN(C(=O)c3cnc[nH]3)C2)n1 (centres unmarked),14.4%
CC(C)CC(=O)N1CCCn2cnc(CNS(C)(=O)=O)c2C1,-0.08772%
CN(C)C(=O)CN1CCC2(CC1)CC(=O)c1c(ccc3ccccc13)O2,16.77%
O=C(O)C(F)(F)F.O=C(O)C(F)(F)F.[H][C@]12CCN(c3ncc(C)cn3)[C@@]1([H])CC[C@H](COCc1ccccn1)O2,-4.948%
O=C(O)C(F)(F)F.[H][C@@]12CO[C@H](CNS(C)(=O)=O)[C@]1([H])CCN(CCc1ccccc1)C2,0.8666%
Cc1cc(NS(=O)(=O)c2ccccc2F)ccc1-n1cccc1C(=O)O,-5.524%
O=C(NCC1CCCO1)c1nc2c(s1)CCCN2Cc1ccccc1 (centres unmarked),14.67%
Cl.Cn1nc(C2CCCN(Cc3ccc(F)c(F)c3)C2)c2nccnc21 (centres unmarked),8.505%
Cc1ccc(N2CCC3(CN(Cc4ccncc4)CCC3(F)F)C2)nn1.O=C(O)C(F)(F)F.O=C(O)C(F)(F)F (centres unmarked),-25.82%
COCC(=O)N1CCCC1c1cccc(Nc2ncc(C)s2)n1 (centres unmarked),6.139%
CN(CC(=O)NC(Cc1ccsc1)c1cccnc1)Cc1cccnc1.Cl (centres unmarked),-1.015%
Cl.[H][C@@]12OCCC[C@]1([H])NC[C@@H]2NC(=O)c1ccno1,-12.07%
Cn1cc(NC(=O)Cn2c(CS(C)(=O)=O)nc3ccccc32)cn1,-8.455%
CCN(CC)S(=O)(=O)NC1CCCc2nc(-c3ccccc3)ncc21 (centres unmarked),-8.07%
O=S(=O)(c1ccccc1)N1CCC2(CCCN2CC2CCCC2)C1 (centres unmarked),-13.03%
COCCN1CC[C@]2(CN(Cc3cccnc3)C[C@H]2C)C1=O.O=C(O)C(F)(F)F.O=C(O)C(F)(F)F,0.722%
CNC(=O)[C@@H]1C[C@@H](NC(=O)c2cn(C)nc2C)CN1Cc1sccc1C,-9.748%
COCc1cncc2c1CCN(C(=O)c1ccoc1C)C2,-1.852%
Cc1nc(CN2CCCC(NCc3cnn(C)c3)C2)no1 (centres unmarked),5.921%
CN(Cc1ccco1)Cc1ccccc1CNC(=O)c1ccncc1,-11.65%
Cc1cc(S(=O)(=O)N2CCC(S(C)(=O)=O)CC2)ccc1F,-12.63%
[H][C@@]12CS(=O)(=O)C[C@]1([H])N(Cc1cnc(C)nc1)CCN2C(=O)C1CCC1,-12.36%
O=C(O)C(F)(F)F.O=C(O)C(F)(F)F.[H][C@@]12CCCO[C@]1([H])[C@H](N(C)Cc1ccco1)CN(CC1CCOCC1)C2,1.128%
Cc1nnc(C2CCN(c3ccc(F)cc3)CC2)o1,17.44%
NC(=O)CC1CCCCN1C(=O)c1cccc(C(F)(F)F)c1 (centres unmarked),-0.6561%
CCn1c(CC2CCN(C(=O)C3CNCCO3)CC2)nn(C)c1=O (centres unmarked),-9.236%
Cc1ccc(-c2ncc(C(=O)NCCNC(=O)C(C)C)s2)c(C)c1,1.76%
Cn1cc(C2CCCN2CCCc2nc(-c3cccs3)no2)cn1 (centres unmarked),40.08% and 24.22% and 11.68%

Some entries from above, unchanged:

SMILES,effect
CCC(CNC1CCN(C(=O)N(C)C)CC1)Oc1ccccc1C (centres unmarked),15.63%
COc1ccc(C)cc1NC(=O)CNc1ccn(CC(N)=O)n1,-7.543%
c1cnnc(N2CCCC2CNCc2nc(-c3cccs3)no2)c1 (centres unmarked),16.05%
CCCNC(=O)NC(=O)CN1C=Nc2ccccc2S1(=O)=O,2.603%
CC(C)C(Sc1nnc(C2CC2)n1C1CC1)C(=O)NCc1cccnc1 (centres unmarked),1.308%
O=c1ccc2c(n1CC1CC1)CCC(NS(=O)(=O)C1CC1)C2 (centres unmarked),0.9549%
CCOc1cccnc1C(=O)N1CCC(c2ccccc2OC)C1 (centres unmarked),-7.543%
CN1CCOC(CNC(=O)CCCOc2cccc(F)c2)C1 (centres unmarked),7.848% and 7.883% and 5.332%
CC(O)CC(C)(C)CNS(=O)(=O)c1cccc(Cl)c1C#N (centres unmarked),19.15%

Source: ChEMBL document CHEMBL3988442, “University of Dundee, Small-Polar-MMV Screening Library” (2021).